In paper PMC11060744:
These are yes or no findings as the source states them, for the method shown. In cells and extracts the contact can be indirect. Some results given as binding are weak or reduced against the parent protein; the word gives no strength.

Tests used:
[1] = target: T1, G protein-coupled receptor 37-like 1 (GPR37L1) (mouse (endogenous in mouse DRG)) (UniProt Q99JG2); test: co-IP; mouse DRG lysates in harvest buffer (10 mM HEPES, 100 mM NaCl, 5 mM EDTA, 1% Triton X-100, pH 7.4); immunoprecipitated with anti-GPR37L1, anti-Kir4.1/KCNJ10 or normal rabbit IgG, protein A magnetic beads; Western blot
T1 sequence: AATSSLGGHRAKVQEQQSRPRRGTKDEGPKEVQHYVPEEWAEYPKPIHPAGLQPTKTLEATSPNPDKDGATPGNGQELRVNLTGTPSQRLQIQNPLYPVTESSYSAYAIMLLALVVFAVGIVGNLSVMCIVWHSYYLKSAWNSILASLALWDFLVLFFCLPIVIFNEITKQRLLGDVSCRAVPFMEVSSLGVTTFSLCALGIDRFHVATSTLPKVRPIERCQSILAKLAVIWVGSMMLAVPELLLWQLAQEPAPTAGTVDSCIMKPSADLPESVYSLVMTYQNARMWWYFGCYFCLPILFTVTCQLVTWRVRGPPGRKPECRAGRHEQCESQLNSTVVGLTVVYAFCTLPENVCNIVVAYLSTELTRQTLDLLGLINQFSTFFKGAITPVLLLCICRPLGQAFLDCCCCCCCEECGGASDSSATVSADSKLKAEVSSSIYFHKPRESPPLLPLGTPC

[2] = target: T2, inwardly rectifying K+ channel KCNJ10 (Kir4.1) (mouse (endogenous in mouse DRG)) (UniProt Q9JM63); test: as above
T2 sequence: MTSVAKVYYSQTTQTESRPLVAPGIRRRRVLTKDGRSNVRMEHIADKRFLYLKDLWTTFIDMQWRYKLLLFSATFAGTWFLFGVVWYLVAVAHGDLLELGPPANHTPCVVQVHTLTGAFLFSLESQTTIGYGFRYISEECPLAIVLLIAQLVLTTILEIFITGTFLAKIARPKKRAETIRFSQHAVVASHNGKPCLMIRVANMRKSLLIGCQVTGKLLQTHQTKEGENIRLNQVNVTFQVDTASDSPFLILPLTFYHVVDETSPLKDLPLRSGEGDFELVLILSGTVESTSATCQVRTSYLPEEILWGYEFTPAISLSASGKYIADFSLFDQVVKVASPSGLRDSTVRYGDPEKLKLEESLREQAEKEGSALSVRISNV

Binder	binding [1]	binding [2]
inwardly rectifying K+ channel KCNJ10 (Kir4.1) (protein, UniProt Q9JM63 1-379) MTSVAKVYYSQTTQTESRPLVAPGIRRRRVLTKDGRSNVRMEHIADKRFLYLKDLWTTFIDMQWRYKLLLFSATFAGTWFLFGVVWYLVAVAHGDLLELGPPANHTPCVVQVHTLTGAFLFSLESQTTIGYGFRYISEECPLAIVLLIAQLVLTTILEIFITGTFLAKIARPKKRAETIRFSQHAVVASHNGKPCLMIRVANMRKSLLIGCQVTGKLLQTHQTKEGENIRLNQVNVTFQVDTASDSPFLILPLTFYHVVDETSPLKDLPLRSGEGDFELVLILSGTVESTSATCQVRTSYLPEEILWGYEFTPAISLSASGKYIADFSLFDQVVKVASPSGLRDSTVRYGDPEKLKLEESLREQAEKEGSALSVRISNV	binds	
G protein-coupled receptor 37-like 1 (GPR37L1) (receptor, UniProt Q99JG2 25-481) AATSSLGGHRAKVQEQQSRPRRGTKDEGPKEVQHYVPEEWAEYPKPIHPAGLQPTKTLEATSPNPDKDGATPGNGQELRVNLTGTPSQRLQIQNPLYPVTESSYSAYAIMLLALVVFAVGIVGNLSVMCIVWHSYYLKSAWNSILASLALWDFLVLFFCLPIVIFNEITKQRLLGDVSCRAVPFMEVSSLGVTTFSLCALGIDRFHVATSTLPKVRPIERCQSILAKLAVIWVGSMMLAVPELLLWQLAQEPAPTAGTVDSCIMKPSADLPESVYSLVMTYQNARMWWYFGCYFCLPILFTVTCQLVTWRVRGPPGRKPECRAGRHEQCESQLNSTVVGLTVVYAFCTLPENVCNIVVAYLSTELTRQTLDLLGLINQFSTFFKGAITPVLLLCICRPLGQAFLDCCCCCCCEECGGASDSSATVSADSKLKAEVSSSIYFHKPRESPPLLPLGTPC		binds
